Results are given in words; binding and its absence hold for the method and conditions named. Tags and fused reporters may be left off the sequences shown.
Tests used:
cyclin A = assay: GST pull-down
cyclin E = assay: GST pull-down

binding (cyclin A): no binding
binding (cyclin E): no binding
B1: GST-DMP1 fusion protein (GST fused to residues 176-761 of DMP1) (other)
chain: GIKDATEIIFEMSKDERKDFYRTIAWGLNRPLFAVYRRVLRMYDDRNHVGKYTPEEIEKLKELRIKHGNDWATIGAALGRSASSVKDRCRLMKDTCNTGKWTEEEEKRLAEVVHELTSTEPGDIVTQGVSWAAVAERVGTRSEKQCRSKWLNYLNWKQSGGTEWTKEDEINLILRIAELDVADENDINWDLLAEGWSSVRSPQWLRSKWWTIKRQIANHKDVSFPVLIKGLKQLHENQKNNPVLLENKSGSGVPNSNCNSSVQHVQIRVARLEDNTAISPSPMAALQIPVQITHVSSTDSPAASADSETITLNSGTLQTFEILPSFPLQPTGTPGTYLLQTSSSQGLPLTLTTNPTLTLAAAAPASPEQIIVHALSPEHLLNTSDNVTVQCHTPRVIIQTVATEDITSSLSQEELTVDSDLHSSDFPEPPDALEADTFPDEIPRPKMTIQPSFNNAHVSKFSDQNSTELMNSVMVRTEEEIADTDLKQEEPPSDLASAYVTEDLESPTIVHQVHQTIDDETILIVPSPHGFIQASDVIDTESVLPLTTLTDPIFQHHQEASNIIGSSLGSPVSEDSKDVEDLVNCH
notes: Made in bacteria, held on glutathione-Sepharose beads; not shown: glutathione S-transferase encoded by pGEX-3X (Pharmacia)
